Results as given in paper PMC5936999.
These are yes or no findings as the source states them, for the method shown. Binding seen in cells or lysates may run through a third protein. Some entries that bind do so weakly or less than the wild type.

Protein sequences, listed by entry. Tags and fused reporters are not part of them.
UniProt Q921F2: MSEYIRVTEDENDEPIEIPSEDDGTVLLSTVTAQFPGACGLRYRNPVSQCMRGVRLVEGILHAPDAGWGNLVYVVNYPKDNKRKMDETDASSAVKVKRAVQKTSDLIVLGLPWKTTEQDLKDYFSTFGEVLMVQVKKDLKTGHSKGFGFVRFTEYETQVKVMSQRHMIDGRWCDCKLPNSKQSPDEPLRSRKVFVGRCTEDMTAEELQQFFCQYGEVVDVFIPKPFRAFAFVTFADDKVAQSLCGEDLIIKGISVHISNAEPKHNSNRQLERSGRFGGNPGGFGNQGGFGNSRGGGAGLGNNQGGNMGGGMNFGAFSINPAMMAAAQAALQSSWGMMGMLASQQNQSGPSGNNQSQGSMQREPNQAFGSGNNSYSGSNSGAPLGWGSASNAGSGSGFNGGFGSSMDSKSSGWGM
UniProt Q60987: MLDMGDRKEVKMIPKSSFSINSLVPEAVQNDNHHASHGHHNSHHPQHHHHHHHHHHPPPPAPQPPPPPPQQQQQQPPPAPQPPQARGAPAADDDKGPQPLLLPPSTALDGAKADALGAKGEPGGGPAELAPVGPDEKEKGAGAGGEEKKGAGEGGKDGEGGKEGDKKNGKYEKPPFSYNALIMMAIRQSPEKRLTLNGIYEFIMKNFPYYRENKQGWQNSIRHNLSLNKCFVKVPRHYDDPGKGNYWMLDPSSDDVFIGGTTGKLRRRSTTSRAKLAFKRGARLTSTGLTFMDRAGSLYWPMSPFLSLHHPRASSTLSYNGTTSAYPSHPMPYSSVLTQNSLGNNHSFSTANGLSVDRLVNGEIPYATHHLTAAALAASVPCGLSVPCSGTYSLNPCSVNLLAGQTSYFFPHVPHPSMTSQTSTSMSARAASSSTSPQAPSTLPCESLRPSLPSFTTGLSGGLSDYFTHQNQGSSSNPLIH

T1: DROSHA (mouse (endogenous in embryonic dorsal telencephalon)) (UniProt Q5HZJ0)
T1 sequence: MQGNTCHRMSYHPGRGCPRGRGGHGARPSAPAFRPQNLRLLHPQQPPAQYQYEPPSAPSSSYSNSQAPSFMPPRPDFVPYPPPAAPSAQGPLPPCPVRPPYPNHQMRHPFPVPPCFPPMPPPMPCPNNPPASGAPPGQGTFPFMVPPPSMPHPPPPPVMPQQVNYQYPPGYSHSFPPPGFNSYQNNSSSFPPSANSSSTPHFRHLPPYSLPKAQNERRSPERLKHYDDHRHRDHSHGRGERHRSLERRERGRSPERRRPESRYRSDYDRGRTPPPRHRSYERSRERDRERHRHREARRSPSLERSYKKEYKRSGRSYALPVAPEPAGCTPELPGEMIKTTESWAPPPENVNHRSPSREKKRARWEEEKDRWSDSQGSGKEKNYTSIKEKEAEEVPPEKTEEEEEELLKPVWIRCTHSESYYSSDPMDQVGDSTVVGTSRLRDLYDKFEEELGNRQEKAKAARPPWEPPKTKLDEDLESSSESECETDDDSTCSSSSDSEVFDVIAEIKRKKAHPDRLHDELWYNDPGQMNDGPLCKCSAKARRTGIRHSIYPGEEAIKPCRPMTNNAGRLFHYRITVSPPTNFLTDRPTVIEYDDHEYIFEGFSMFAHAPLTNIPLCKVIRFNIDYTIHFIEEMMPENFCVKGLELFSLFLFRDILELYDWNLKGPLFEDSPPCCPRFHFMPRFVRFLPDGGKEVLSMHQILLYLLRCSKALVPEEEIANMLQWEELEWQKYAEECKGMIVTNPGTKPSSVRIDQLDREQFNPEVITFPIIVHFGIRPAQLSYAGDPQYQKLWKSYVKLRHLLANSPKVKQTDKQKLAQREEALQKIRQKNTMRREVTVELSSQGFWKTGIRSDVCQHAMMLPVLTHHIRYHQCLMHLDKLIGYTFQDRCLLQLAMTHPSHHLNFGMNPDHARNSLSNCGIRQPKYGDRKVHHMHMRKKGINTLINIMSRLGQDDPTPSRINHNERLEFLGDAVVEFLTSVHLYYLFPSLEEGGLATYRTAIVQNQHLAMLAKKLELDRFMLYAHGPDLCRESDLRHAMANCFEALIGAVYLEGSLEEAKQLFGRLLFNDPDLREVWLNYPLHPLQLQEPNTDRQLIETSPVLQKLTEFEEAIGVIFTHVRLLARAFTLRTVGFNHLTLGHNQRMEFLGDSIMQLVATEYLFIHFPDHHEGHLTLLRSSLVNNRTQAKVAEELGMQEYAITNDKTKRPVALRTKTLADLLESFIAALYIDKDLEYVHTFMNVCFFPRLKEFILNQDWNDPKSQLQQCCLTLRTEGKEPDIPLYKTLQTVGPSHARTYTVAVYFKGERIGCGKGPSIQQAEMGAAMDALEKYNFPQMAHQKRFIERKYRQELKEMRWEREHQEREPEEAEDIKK

B1: DGCR8 (protein, UniProt Q9EQM6 1-773)
chain: METYESPSPLPREPAGEAMMENRACPFQVLPHEQSPPPPLQTSSDAEVMDVGSGGDGQSEPPADDPFNFYGASLLSKGSFSKGRLLIDPNCSGHSPRTARHAPAVRKFSPDLKLLKDVKISVSFTESCRSKDRKVLYTGVERSTRPECGQLLSPVSGDVHACPFGGSVGNGVGLGGESADKKDEENELDQEKRVEYAVLDELEDFTDNLELDEEGTGGFTAKAIVQRDRVDEEALNFSYEDDFDNDVDALLEEGLCAPKKRRMEEKYGGDSDHPSDGETSVQPMMTKIKTVLKSRGRPPTEPLPDGWIMTFHNSGVPVYLHRESRVVTWSRPYFLGTGSIRKHDPPLSSIPCLHYKKMKDNEEREQNCDLAPSGEVSPVKPLGRSAELDFPLEEPDSMGGDSGSMDEKDPLGAEAAAGALGQVKAKVEVCKDESVDLEEFRNYLEKRFDFEQVTVKKFRTWAERRQFNREMKRKQAESERPILPANQKLITLSVQDAPTKKEFVINPNGKSEVCILHEYMQRVLKVRPVYNFFECENPSEPFGASVTIDGVTYGSGTASSKKLAKNKAARATLEILIPDFVKQTSEEKPKDSEELEYFNHISIEDSRVYELTSKAGLLSPYQILHECLKRNHGMGDTSIKFEVVPGKNQKSEYVMACGKHTVRGWCKNKRVGKQLASQKILQLLHPHVKNWGSLLRMYGRESSKMVKQETSDKSVIELQQYAKKNRPNLHILSKLQEEMKRLAAEREETRKKPKMSIVASAQPGGEPLCTVDV

Target: T1, DROSHA (mouse (endogenous in embryonic dorsal telencephalon))
Assay: co-IP; anti-DROSHA (or rabbit IgG, mock) on Protein G Dynabeads; lysates of E14.5 mouse dorsal telencephalon electroporated at E12.5 (Control and DGCR8 OE); Co-IP buffer 100 mM NaCl, 20 mM Tris, 1 mM EDTA, 0.5% NP-40; overnight at 4°C; western blot

Molecule | binding
TAR DNA-binding protein 43 (from UniProt Q921F2 1-414) | binds
Forkhead box protein G1 (from UniProt Q60987 1-481) | binds
B1 | binds
